# From PubChem BioAssay AID493014 (National Center for Advancing Translational Sciences (NCATS), 2011)
# The list shows a part of the results. Further columns of the screen follow, without active or inactive calls. Most of these compounds were active or inconclusive in the main read-out, so they are no random draw. Potencies come from curve fits of mixed quality, noted in brackets.
# Assay: qHTS Assay to Find Inhibitors of Chronic Active B-Cell Receptor Signaling
# Details: ABC-DLBCL IkBa-CBG/CBR reporter, luminescence ratio (green luciferase fused to IkBa over red control in TMD8 lymphoma cells), 4 h
# Procedure, shortened: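 Cell line TMD8 (human ABC DLBCL), stably expressing tet-inducible CBG68-IkBa fusion and CBR; IMDM/0.5% FBS; cpd up to 46 uM; dox induction, 4 h, 37C/5% CO2; dual luminescence; green/red ratio; MG132 control.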
# [1] = measured here: CBR red luminescence, cell number
# [2] = measured here: IkBa-CBG green luminescence
SMILES,AC50 [1],AC50 [2]
COc1ccc(CCN(C)CCCC(C#N)(c2cc(OC)c(OC)c(OC)c2)C(C)C)cc1OC (stereo not drawn),"29.1 µM [falling, single point]",
O=C(NCCSCc1ccccc1)c1ccc(C2SCC(=O)N2Cc2ccccc2)cc1 (stereo not drawn),"4.11 µM [falling, single point]",
CCN(CC)CC(O)COc1ccc2c(c1)c(C(C)=O)c(C)n2-c1ccccc1 (stereo not drawn),"20.6 µM [rising, single point]",
Cc1nc(NCCOc2ccccc2)sc1C(=O)Nc1ccccc1,"11.2 µM [falling, partial curve, poor fit]",
COc1ccccc1Nc1nc(N)nc(-c2cc3ccccc3o2)n1,"0.259 µM [falling, full curve]",
O=[N+]([O-])c1ccc(-[n+]2ccc3ccccc3c2)c([N+](=O)[O-])c1,"16.4 µM [falling, single point]","13 µM [rising, partial curve, poor fit]"
O=C(/C=C/c1ccco1)NC(=S)Nc1ccc(Cl)cn1,"29.1 µM [falling, single point]",
Cc1ccc(C(=O)N/N=C/c2ccc(-c3cccc(Cl)c3)o2)cn1,"0.794 µM [falling, full curve]",
Cc1ccc(Nc2cnn(C34CC5CC(CC(CC(=O)O)(C5)C3)C4)c(=O)c2Cl)cc1,"4.61 µM [falling, single point]",
CNC(=O)NC(=O)C(C)OC(=O)c1c(C)noc1C (stereo not drawn),"20.6 µM [rising, single point]",
N=c1c2c(-c3ccccc3)c(-c3ccccc3)n(Cc3ccccc3)c2ncn1CCO,"20 µM [falling, partial curve, poor fit]",
O=C(Nc1ccccc1)C(=O)Nc1cccnc1,"1.58 µM [falling, full curve]",
NS(=O)(=O)c1cccc(NC(=O)c2cc3ccccc3o2)c1,"20 µM [falling, single point]",
O=[N+]([O-])c1cccc(/C=C/c2ccc3cccc(O)c3n2)c1,"35.5 µM [falling, single point]",
Cc1ccccc1C(=O)N1CCN(c2ccc(NC(=O)CSc3ccc(Cl)cc3)cc2)CC1,"0.224 µM [falling, full curve, poor fit]",
O=C1C=C(NCc2ccccc2)c2ccccc2C1=O,"35.5 µM [falling, single point]",
Cc1ccc(CN2C(=O)CCC2C(=O)NCCN2CCN(c3cccc(Cl)c3)CC2)cc1 (stereo not drawn),"35.5 µM [falling, single point]",
OCCCCCN=c1cc(-c2ccccc2)oc2ccc(Cl)cc12,"1.41 µM [rising, partial curve]",
O=C(CSc1nnc(N2CCCC2)n1-c1ccccc1Cl)N1CCN(c2ccccn2)CC1,"2.31 µM [rising, partial curve]",
Cc1ccccc1C(=O)Nc1ccc(N2CCOCC2)nc1,"8.91 µM [falling, partial curve]",
COc1cc(/C=C/C(=O)O)cc(Br)c1O,"12.6 µM [falling, single point]",

# Among those listed so far, these contain a COOH group:
SMILES,AC50 [1],AC50 [2]
Cc1ccc(Nc2cnn(C34CC5CC(CC(CC(=O)O)(C5)C3)C4)c(=O)c2Cl)cc1,"4.61 µM [falling, single point]",
COc1cc(/C=C/C(=O)O)cc(Br)c1O,"12.6 µM [falling, single point]",

# Additional compounds:

SMILES,AC50 [1],AC50 [2]
O=C(c1nn2c(C(F)(F)F)cc(-c3cccs3)nc2c1Br)N1CCCc2ccccc21,"1.64 µM [falling, partial curve, poor fit]",
COc1cc2c(C(=O)N3CCN(c4cccc(Cl)c4)CC3)cn(CC(C)C)c(=O)c2cc1OC,"20.6 µM [falling, single point]",
CSc1nsc(/C=C/Nc2ccc(O)cc2C)c1C#N,"6.31 µM [rising, single point]",
CCOC(=O)c1c(C)[nH]c(C(=O)N/N=C/c2ccc(Br)cc2)c1C,"4.11 µM [rising, partial curve]","1.84 µM [falling, full curve]"
CSc1cccc(NC(=O)/C=C/c2ccccc2)c1,"11.2 µM [falling, partial curve]",
CCOC(=O)C1=CC[C@H]2c3c(c4ccccc4n3C)C[C@H]1N2C,"29.1 µM [falling, single point]",
COC(=O)Cc1ccc(NC(=O)c2cccs2)cc1,"13 µM [falling, partial curve, poor fit]",
c1csc(C(c2nnnn2C2CCCC2)N2CCOCC2)c1 (stereo not drawn),"2 µM [rising, full curve, poor fit]",
COCCNS(=O)(=O)c1cc2[nH]c3c(c2cc1C)C(=O)CC(C)(C)C3,"10 µM [rising, single point]",
COc1ccc(C)cc1-n1c(SCC(=O)Nc2cccc(C(=O)O)c2)nc2ccccc2c1=O,"6.31 µM [rising, full curve, poor fit]",
CCOC(=O)c1c(/N=C/c2cc(C)ccc2O)sc2c1CCN(C)C2,"0.103 µM [falling, full curve, poor fit]",
Cc1ccc(NC(=O)c2nc[nH]c2C(=O)N2CCN(c3ccccc3)CC2)cc1,"2.24 µM [rising, partial curve]",
COc1ccc2c(c1)cc1n2CCN=C1NN,"0.103 µM [rising, full curve, poor fit]",
CCOC(=O)c1ccc(N2N=C(C)/C(=C/C=C/c3ccco3)C2=O)cc1,"0.731 µM [falling, full curve]",
CN(C)CCn1c2c(c(SCC(=O)Nc3cccc(C(F)(F)F)c3)nc1=O)CCCC2,"6.51 µM [falling, partial curve, poor fit]",
O=S(=O)(N/N=C/c1ccccc1OCc1ccc(Cl)cc1)c1ccccc1,,"20.6 µM [falling, single point]"
CCOC(=O)c1cc2c(=O)n3ccccc3nc2n(Cc2ccco2)c1=NC(=O)c1cccc(Br)c1,"22.4 µM [falling, partial curve, poor fit]",
CCN(CC)CCNCc1ccc(-c2ccc(Cl)cc2)o1,"11.2 µM [falling, partial curve, poor fit]",
O=C(Nc1ccc(C(=O)O)cc1)/C(=C\C=C\c1ccccc1)NC(=O)c1ccccc1Br,"10 µM [falling, partial curve, poor fit]",
COC(=O)c1sccc1NC(=O)Nc1cccc(OC)c1,"1.26 µM [falling, full curve]",
